PubChem BioAssay AID1259405, NCATS, 2018
The deposit covers about 50,000 reagents; below is a part drawn at random. About 4,000 of all reagents (8%) count as active. 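Mouse siRNA library applied to hamster cells; one well for each siRNA.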 Entries without a mark were called inactive. Reagents against one gene are numbered here.

- Screen: 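Mouse-designed siRNAs used to find CHO productivity engineering targets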 (primary screen)
- System: Chinese hamster CHO-K1 ovary cells with stable secreted eGFP expression
- Reagents: single siRNA against mouse genes, 0.8 pmol siRNA per well (2 µl of 400 nM stock)
- Time to read-out: 3 days
- Measured: 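Per-well intracellular GFP measured by laser scanning cytometry, plus viability from ATP luminescence, each relative to plate median of non-targeting control wells, in %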
- Reading the numbers: GFP, % of control: higher = more GFP per well, higher productivity; viability (ATP), % of control: higher = more viable cells (more ATP)
- Hit rule: 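Called active when intracellular GFP, relative to negative control, is at or above 120%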

gene knocked down,reagent,"GFP, % of control","viability (ATP), % of control"
"Zfp85os (zinc finger protein 85, opposite strand)",1,112,90.1
"Zfp85os (zinc finger protein 85, opposite strand)",2,58.3,61.4
"Zfp85os (zinc finger protein 85, opposite strand)",3,105,124
Polr2k (polymerase (RNA) II (DNA directed) polypeptide K),1,34.5,38.4
Polr2k (polymerase (RNA) II (DNA directed) polypeptide K),2,77.3,100
Usp17lb (ubiquitin specific peptidase 17-like B),1,115,99.2
Usp17lb (ubiquitin specific peptidase 17-like B),2,174 (active),95.2
Usp17lb (ubiquitin specific peptidase 17-like B),3,67.8,61.1
Ccne2 (cyclin E2),1,134 (active),43.9
Ccne2 (cyclin E2),2,87.3,62.1
Ccne2 (cyclin E2),3,97.1,94.7
Lrrcc1 (leucine rich repeat and coiled-coil domain containing 1),1,107,121
Lrrcc1 (leucine rich repeat and coiled-coil domain containing 1),2,47.9,72.2
Lrrcc1 (leucine rich repeat and coiled-coil domain containing 1),3,34.1,96.3
Stk11 (serine/threonine kinase 11),1,44.4,52.6
"Sf3b1 (splicing factor 3b, subunit 1)",1,76,13
"Sf3b1 (splicing factor 3b, subunit 1)",2,106,15.4
"Sf3b1 (splicing factor 3b, subunit 1)",3,63.5,8.8
Zswim3 (zinc finger SWIM-type containing 3),1,151 (active),79.1
Zswim3 (zinc finger SWIM-type containing 3),2,18,53.1
Zswim3 (zinc finger SWIM-type containing 3),3,61,83.3
Zswim3 (zinc finger SWIM-type containing 3),4,104,82.4
Zswim3 (zinc finger SWIM-type containing 3),5,106,91.1
Zswim3 (zinc finger SWIM-type containing 3),6,133 (active),87.5
"Chrnb3 (cholinergic receptor, nicotinic, beta polypeptide 3)",1,65.2,80
"Chrnb3 (cholinergic receptor, nicotinic, beta polypeptide 3)",2,28,32.2
"Chrnb3 (cholinergic receptor, nicotinic, beta polypeptide 3)",3,34.1,60.7
Enpep (glutamyl aminopeptidase),1,71.2,64.9
Enpep (glutamyl aminopeptidase),2,86.4,49.5
Enpep (glutamyl aminopeptidase),3,54,48.9
"Cyp1b1 (cytochrome P450, family 1, subfamily b, polypeptide 1)",1,55.7,59
"Cyp1b1 (cytochrome P450, family 1, subfamily b, polypeptide 1)",2,110,62.4
"Cyp1b1 (cytochrome P450, family 1, subfamily b, polypeptide 1)",3,85.3,69.7
Hus1b (HUS1 checkpoint clamp component B),1,58.8,68.3
Hus1b (HUS1 checkpoint clamp component B),2,112,125
Hus1b (HUS1 checkpoint clamp component B),3,89.6,98.3

Laid out differently: 2 of the entries above.
{"gene knocked down": "Zswim3 (zinc finger SWIM-type containing 3)", "reagent": 5, "GFP, % of control": 106, "viability (ATP), % of control": 91.1}
{"gene knocked down": "Zswim3 (zinc finger SWIM-type containing 3)", "reagent": 6, "GFP, % of control": "133 (active)", "viability (ATP), % of control": 87.5}
